PMC3862573
No constants are given. Whether binding was seen depends on the method and setting. Binding seen in cells or lysates may run through a third protein. Some binding calls cover weakened binding; strength is not graded here. For some assays here: Where a sequence is shown, tags or fusion partners need not be part of it.

Experiments:
[1] = target: T1, rOctn2 Δ447–454 with C-terminal 3xFLAG (p3xFLAG-CMV14/OCTN2-Δ447–454) (rat) (UniProt O70594); assay: co-IP; HEK293 cells with rOctn2-3xFLAG or its deletion mutants, lysed in 150 mM NaCl, 50 mM Tris pH 7.4, 1% Nonidet P40; anti-FLAG M2 affinity agarose, elution with 3xFLAG peptide; blot for caveolin-1; clones with equal FLAG level, band intensity normalized to FLAG
T1 sequence: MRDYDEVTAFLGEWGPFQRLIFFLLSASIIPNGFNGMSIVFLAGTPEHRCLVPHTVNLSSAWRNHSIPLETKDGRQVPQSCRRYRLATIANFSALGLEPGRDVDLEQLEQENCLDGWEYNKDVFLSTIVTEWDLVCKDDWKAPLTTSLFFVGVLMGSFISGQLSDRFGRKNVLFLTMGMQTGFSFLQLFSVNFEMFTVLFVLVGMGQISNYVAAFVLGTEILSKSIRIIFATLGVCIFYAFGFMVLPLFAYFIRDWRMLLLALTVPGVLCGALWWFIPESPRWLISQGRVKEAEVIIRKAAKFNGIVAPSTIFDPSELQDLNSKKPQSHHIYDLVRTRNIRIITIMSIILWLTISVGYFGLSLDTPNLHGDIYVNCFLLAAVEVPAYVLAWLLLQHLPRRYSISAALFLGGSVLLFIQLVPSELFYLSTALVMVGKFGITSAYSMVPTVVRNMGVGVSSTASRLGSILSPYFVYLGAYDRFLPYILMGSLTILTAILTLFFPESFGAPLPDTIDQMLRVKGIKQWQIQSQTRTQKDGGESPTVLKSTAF

[2] = target: T2, rOctn2 wild type with C-terminal 3xFLAG (p3xFLAG-CMV14/OCTN2) (rat) (UniProt O70594); assay: as above
T2 sequence: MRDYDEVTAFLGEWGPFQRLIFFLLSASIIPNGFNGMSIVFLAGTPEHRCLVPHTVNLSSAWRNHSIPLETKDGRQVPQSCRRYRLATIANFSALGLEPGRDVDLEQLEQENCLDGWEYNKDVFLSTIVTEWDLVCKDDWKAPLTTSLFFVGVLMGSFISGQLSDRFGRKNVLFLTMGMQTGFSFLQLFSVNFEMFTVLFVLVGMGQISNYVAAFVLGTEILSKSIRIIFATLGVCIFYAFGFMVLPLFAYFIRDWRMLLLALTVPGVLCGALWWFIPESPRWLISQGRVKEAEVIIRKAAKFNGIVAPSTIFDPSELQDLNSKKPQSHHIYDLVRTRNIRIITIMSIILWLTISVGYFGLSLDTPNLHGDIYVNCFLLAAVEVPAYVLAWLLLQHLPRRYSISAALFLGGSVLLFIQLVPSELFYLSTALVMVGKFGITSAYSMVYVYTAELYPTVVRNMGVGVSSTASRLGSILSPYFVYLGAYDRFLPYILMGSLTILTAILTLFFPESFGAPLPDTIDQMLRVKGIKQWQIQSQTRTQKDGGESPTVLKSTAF

[3] = target: T3, Organic cation/carnitine transporter Octn2 (rat, endogenous in astrocytes) (rat (endogenous in astrocytes)) (UniProt O70594); assay: proximity ligation; astrocytes, control or 200 nM PMA, fixed with 4% paraformaldehyde, permeabilized with 0.1% Triton X-100; one rabbit and one mouse primary antibody (1:100); fluorescence referred to number of nuclei; distance not exceeding 40 nm
T3 sequence: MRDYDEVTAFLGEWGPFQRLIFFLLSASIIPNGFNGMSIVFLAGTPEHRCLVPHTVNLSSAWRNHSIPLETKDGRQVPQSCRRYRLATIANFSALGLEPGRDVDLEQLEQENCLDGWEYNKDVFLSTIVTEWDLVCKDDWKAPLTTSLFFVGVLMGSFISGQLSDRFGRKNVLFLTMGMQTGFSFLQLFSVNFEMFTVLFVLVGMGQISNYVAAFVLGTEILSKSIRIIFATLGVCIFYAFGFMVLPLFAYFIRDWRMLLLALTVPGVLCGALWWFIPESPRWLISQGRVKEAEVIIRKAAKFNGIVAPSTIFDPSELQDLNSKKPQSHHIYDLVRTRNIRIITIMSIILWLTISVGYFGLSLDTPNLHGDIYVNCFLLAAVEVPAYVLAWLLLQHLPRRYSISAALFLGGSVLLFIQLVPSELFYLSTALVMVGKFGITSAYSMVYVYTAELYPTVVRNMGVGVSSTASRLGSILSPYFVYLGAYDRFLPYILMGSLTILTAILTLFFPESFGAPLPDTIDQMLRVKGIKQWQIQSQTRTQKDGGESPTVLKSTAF

[4] = target: T3, Organic cation/carnitine transporter Octn2 (rat, endogenous in astrocytes) (rat (endogenous in astrocytes)); assay: co-IP; astrocyte homogenates, precleared, immunoprecipitated with anti-Octn2 antibody (4 µg) on Protein A Sepharose CL-4B; blots for caveolin-1 and flotillin-1; cells treated with vehicle, 200 nM PMA (30 min) or 10 µM Bis II then PMA
[5] = target: T4, Caveolin-1 (rat, endogenous in astrocytes) (rat (endogenous in astrocytes)) (UniProt P41350); assay: proximity ligation; astrocytes, control or 200 nM PMA, fixed with 4% paraformaldehyde, permeabilized with 0.1% Triton X-100; one rabbit and one mouse primary antibody (1:100); fluorescence referred to number of nuclei; distance not exceeding 40 nm
T4 sequence: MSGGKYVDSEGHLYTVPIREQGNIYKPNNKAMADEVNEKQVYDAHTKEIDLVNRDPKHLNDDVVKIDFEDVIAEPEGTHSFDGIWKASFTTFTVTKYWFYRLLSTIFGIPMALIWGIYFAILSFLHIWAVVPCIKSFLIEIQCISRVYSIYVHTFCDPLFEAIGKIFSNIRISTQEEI

With “Caveolin-1 (endogenous in HEK293 cells) (from UniProt Q03135 1-178)” the binding [1] was “binds” and the binding [2] was “binds”.

B1: Caveolin-1 (rat, endogenous in astrocytes) (protein, UniProt P41350 1-178)
chain: MSGGKYVDSEGHLYTVPIREQGNIYKPNNKAMADEVNEKQVYDAHTKEIDLVNRDPKHLNDDVVKIDFEDVIAEPEGTHSFDGIWKASFTTFTVTKYWFYRLLSTIFGIPMALIWGIYFAILSFLHIWAVVPCIKSFLIEIQCISRVYSIYVHTFCDPLFEAIGKIFSNIRISTQEEI
For B1, the binding [3] was “binds” and the binding [4] was “binds”.

B2: Flotillin-1 (rat, endogenous in astrocytes) (protein, UniProt Q9Z1E1 1-428)
chain: MFFTCGPNEAMVVSGFCRSPPVMVAGGRVFVLPCIQQIQRISLNTLTLNVKSEKVYTRHGVPISVTGIAQVKIQGQNKEMLAAACQMFLGKTEAEIAHIALETLEGHQRAIMAHMTVEEIYKDRQKFSEQVFKVASSDLVNMGISVVSYTLKDIHDDQDYLHSLGKARTAQVQKDARIGEAEAKRDAGIREAKAKQEKVSAQCLSEIEMAKAQRDYELKKATYDIEVNTRRAQADLAYQLQVAKTKQQIEEQRVQVQVVERAQQVAVQEQEIARREKELEARVRKPAEAERYRLERLAEAEKAQLIMQAEAEAESVRMRGEAEAFAVGARARAEAEQMAKKAEAFQMYQEAAQLDMLLEKLPQVAEEISGPLTSANKITLVSSGSGTMGAAKVTGEVLDILSRLPESVERLTGVSISQVNHNKPLRTA
For B2, the binding [5] was “no binding”.
